Reference: patent US20070134693A1, “Method for modulating the binding activity of a novel ICAM-3 binding receptor on sinusoidal endothelial cells in liver and lymph nodes” (priority 2000, published 2007)
Results are given in words; binding and its absence hold for the method and conditions named. Some binding calls cover weakened binding; strength is not graded here.

Protein sequences, listed by entry. Tags and fused reporters are not part of them. Lines headed by an entry give the natural chain unless they say otherwise; changes in a name come on top.
UniProt Q9NNX6: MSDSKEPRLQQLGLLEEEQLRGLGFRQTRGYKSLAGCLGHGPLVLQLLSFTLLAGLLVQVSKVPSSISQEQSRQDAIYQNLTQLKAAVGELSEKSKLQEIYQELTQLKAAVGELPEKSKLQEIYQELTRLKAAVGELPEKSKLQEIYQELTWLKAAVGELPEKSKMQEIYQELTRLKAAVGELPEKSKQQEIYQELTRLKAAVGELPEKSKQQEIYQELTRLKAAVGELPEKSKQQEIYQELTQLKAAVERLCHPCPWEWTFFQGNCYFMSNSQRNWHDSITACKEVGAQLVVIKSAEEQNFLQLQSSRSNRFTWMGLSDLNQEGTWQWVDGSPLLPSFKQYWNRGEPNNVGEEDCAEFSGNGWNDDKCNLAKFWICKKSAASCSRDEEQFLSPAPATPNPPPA
UniProt Q9H2X3: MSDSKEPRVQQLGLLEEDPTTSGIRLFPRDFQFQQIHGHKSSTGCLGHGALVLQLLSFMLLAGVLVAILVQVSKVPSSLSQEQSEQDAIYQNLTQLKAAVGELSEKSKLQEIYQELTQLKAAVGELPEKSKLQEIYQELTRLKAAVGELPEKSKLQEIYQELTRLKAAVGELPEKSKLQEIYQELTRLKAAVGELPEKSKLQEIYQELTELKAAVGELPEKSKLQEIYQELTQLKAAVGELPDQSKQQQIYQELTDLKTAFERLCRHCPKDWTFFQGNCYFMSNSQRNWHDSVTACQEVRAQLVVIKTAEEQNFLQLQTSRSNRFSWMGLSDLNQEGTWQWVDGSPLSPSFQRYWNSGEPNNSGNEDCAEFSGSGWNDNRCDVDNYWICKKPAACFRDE

What was measured:
ICAM-3 [1] = target: T1, ICAM-3 (UniProt P32942); experiment: fluorescent bead adhesion assay on K562-DC-SIGN cells
T1 sequence (looked up): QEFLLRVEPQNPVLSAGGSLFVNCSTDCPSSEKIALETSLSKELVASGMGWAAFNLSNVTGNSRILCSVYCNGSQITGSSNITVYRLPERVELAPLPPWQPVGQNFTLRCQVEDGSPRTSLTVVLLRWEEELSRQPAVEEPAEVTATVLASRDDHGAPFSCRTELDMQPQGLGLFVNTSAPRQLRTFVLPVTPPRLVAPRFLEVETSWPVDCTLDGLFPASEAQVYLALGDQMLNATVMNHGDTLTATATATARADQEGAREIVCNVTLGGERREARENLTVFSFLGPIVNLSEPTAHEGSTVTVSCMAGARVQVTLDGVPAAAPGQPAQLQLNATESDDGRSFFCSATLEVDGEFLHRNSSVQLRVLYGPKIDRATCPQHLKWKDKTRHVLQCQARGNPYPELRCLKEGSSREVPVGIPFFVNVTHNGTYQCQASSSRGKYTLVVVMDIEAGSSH

ICAM-3 [2] = target: T1, ICAM-3; experiment: fluorescent bead adhesion assay on K562-L-SIGN cells
ICAM-3 [3] = target: T1, ICAM-3; experiment: flow cytometry-based fluorescent bead adhesion assay

binding (ICAM-3 [2])	binding (ICAM-3 [3])	Substance	binding (ICAM-3 [1])
–	–	DC-SIGN (from UniProt Q9NNX6 1-404) (receptor)	binds
binds	binds	L-SIGN (liver/lymph node-specific ICAM-3 grabbing nonintegrin) (from UniProt Q9H2X3 1-399) (receptor)	–
